One assay concerns the target Flag-LC3C (UniProt Q9BXW4). Briefly: co-IP.
A further assay has as its target T1, STX18-Flag (UniProt Q9P2W9).
T1 sequence: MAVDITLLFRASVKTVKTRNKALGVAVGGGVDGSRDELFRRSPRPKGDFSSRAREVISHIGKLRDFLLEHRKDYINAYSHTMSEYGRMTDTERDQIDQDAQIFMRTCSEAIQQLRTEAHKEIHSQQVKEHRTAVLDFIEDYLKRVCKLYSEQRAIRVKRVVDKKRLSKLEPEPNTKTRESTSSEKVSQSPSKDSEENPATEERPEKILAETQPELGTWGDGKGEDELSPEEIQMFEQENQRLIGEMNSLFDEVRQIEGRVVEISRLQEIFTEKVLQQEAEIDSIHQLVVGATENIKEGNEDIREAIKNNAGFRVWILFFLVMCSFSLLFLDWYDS
Briefly: co-IP.

The chains behind the UniProt entries cited, without tags or fusion partners. Residues count along the entry.
UniProt Q9BXW4, residues 1-126: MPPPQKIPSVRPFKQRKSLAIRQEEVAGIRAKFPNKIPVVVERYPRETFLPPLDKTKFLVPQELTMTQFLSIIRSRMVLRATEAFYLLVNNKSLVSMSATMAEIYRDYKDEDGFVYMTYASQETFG
UniProt P56962: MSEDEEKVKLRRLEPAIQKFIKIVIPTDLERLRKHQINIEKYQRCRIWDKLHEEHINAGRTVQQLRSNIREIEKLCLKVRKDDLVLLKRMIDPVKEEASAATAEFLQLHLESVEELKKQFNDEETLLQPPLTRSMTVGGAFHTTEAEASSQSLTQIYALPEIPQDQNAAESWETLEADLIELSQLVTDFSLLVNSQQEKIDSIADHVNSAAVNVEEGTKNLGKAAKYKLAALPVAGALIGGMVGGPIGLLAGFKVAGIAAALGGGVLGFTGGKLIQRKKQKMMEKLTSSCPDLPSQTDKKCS

For the next assay, the target named is T2, endogenous STX18 (UniProt Q9P2W9).
T2 sequence: T1 sequence
Briefly: co-IP; endogenous IP: precleared lysate, primary antibody overnight, protein A/G plus-agarose 4 h; cells with OA or CQ treatment or Atg7 knock-down.

In another assay the target is GFP-LC3C (UniProt Q9BXW4). Briefly: co-IP.
The target in assay [1] is GST-LC3C (UniProt Q9BXW4). As to the kind of experiment: pull-down; GST pull-down of LC3C with ATG14 with or without added STX18 (Fig. 3e); both purified.
Assay [2] deals with GST-LC3C (UniProt Q9BXW4). Briefly: pull-down; GST pull-down in vitro: GST-tagged protein on GST beads with the His-tagged protein overnight at 4 °C in 20 mM Tris pH 7.4, 300 mM NaCl, 0.1% NP-40, 1 mM PMSF; three washes; western blot; both purified. For orientation: A western blot detects proteins with antibodies after separation by electrophoresis.
The target in assay [3] is STX17 (construct not shown) (UniProt P56962). Briefly: co-IP.

Results are given in words; binding and its absence hold for the method and conditions named. For some of these results: In cells and extracts the contact can be indirect. Some results given as binding are weak or reduced against the parent protein; the word gives no strength. For some of these results: Tags and fused reporters may be left off the sequences shown.

Experimental findings from PMC10799895 are described below.

For Myc-ATG14 (from UniProt Q6ZNE5 1-492), in the assay with Flag-LC3C, the binding entry was “binds”.

On to ATG14-HA (from UniProt Q6ZNE5 1-492), for which the binding entry in the assay with STX18-Flag is on record as “binds”.

As to M-HA (from UniProt P0DTC5 1-222), the binding result with STX18-Flag is recorded as “binds”.

Regarding “endogenous ATG14 (from UniProt Q6ZNE5 1-492)”, in the assay with endogenous STX18, the binding result is given as “binds”.

In the case of ATG14-Flag (from UniProt Q6ZNE5 1-492), the binding entry with GFP-LC3C was “binds”.

Turning to “endogenous Beclin1 (from UniProt Q14457 1-450)”, the binding entry with STX18-Flag is reported as “binds”.

For the substance “His-sumo-ATG14 (from UniProt Q6ZNE5 1-492)”, the binding entry in the assay with GST-LC3C [1] and with GST-LC3C [2] was “binds” each time.

For the substance “ATG14 (wild type; construct not shown) (from UniProt Q6ZNE5 1-492)”, the binding result (in assay [3]; with STX18-Flag) was “binds” throughout.
